From patent US7507792B2, “MDA-7 proteins and methods of use thereof” (The Trustees of Columbia University In The City of New York, priority 1993, dated 2009)
Some results were stated once for a whole list of compounds, not compound by compound. At least one compound was matched to its structure with a doubt left.

System: HL-525 cells
Assay: Cell growth (cell counts)
Type: cell-based, human
Conditions: 6 d, 3 nM TPA, 1 μM RA, 400 nM Vit D3
Method: Cell counts were determined by hemocytometer chamber counting. Immunofluorescence tests for reactivity with the OKM1 antibody (Ortho Pharmaceutical Corp., Raritan, N.J.) were performed as previously described (Murao et al., 1983).

## CCCCCCCCCCCCCC(=O)O[C@@H]1[C@@H](C)[C@@]2(O)[C@@H](C=C(CO)C[C@]3(O)C(=O)C(C)=C[C@@H]23)[C@@H]2C(C)(C)[C@]12OC(C)=O [TPA, 12-O-tetradecanoyl-phorbol-13-acetate]
  reduction in growth (cell numbers): less than 5%
